Article doi:10.1101/2022.03.07.483362
No constants are given. Whether binding was seen depends on the method and setting. Binding seen in cells or lysates may run through a third protein. A result given as binding can be weak or reduced; the word gives no strength. Sequences can lack the tags named with a protein.

Target: AtRsmD-GFP (p35S:AtRsmD-GFP) transiently expressed in N. benthamiana (Arabidopsis thaliana)
Experiment: co-IP

binding: binds
B1: RPS20-Myc (protein, UniProt Q9ASV6 80-202)
chain: AAAPTKKADSAAKRARQAEKRRVYNKSKKSEARTRMKKVLEALEGLKKKTDAQADEIVTVEKLIGEAYSAIDKAVKVKALHKNTGARRKSRLARRKKAVEIHHGWYVPDAAAAAPSEAVPMAA
